In the supplement of paper PMC8975748:
Structures can show the parent of a compound that is named as a salt. ± gives the standard deviation of the averaged measurements. Some of the results follow. Values are raw readings; no control value is given beside them.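 One yeast strain harboring four plasmids, each bearing a fluorescent protein plus an amino-acid or uracil synthesis gene, founds the community. Random loss of plasmids produces mixed prototroph and auxotroph subpopulations. Cells were fixed, then counted with automated confocal fluorescence imaging, with DMSO-treated wells as vehicle reference.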

System: Saccharomyces cerevisiae BY4741 SeMeCo community
Assay: imaged cell count per well (cells); higher = more cells
Settings: 10 µM; 24 h; SM minimal medium
Method: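 Same SeMeCo high-content imaging drug screen: Selleck FDA-approved drugs at 10 µM, 24 h in SM medium, 384-well plates, 3 replicates.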

| SMILES | imaged cell count per well |
| --- | --- |
| Cn1c(=O)c2c(ncn2CC(O)CO)n(C)c1=O (stereo unspecified) [Dyphylline] | 22000 ± 7600 |
| CC(=O)[C@H]1CC[C@H]2[C@@H]3CC=C4C[C@@H](O)CC[C@]4(C)[C@H]3CC[C@]12C [Pregnenolone] | 20900 ± 730 |
| OC(CCN1CCCCC1)(c1ccccc1)C1CCCCC1 (stereo unspecified) [Trihexyphenidyl hydrochloride] | 21700 ± 6700 |
| CCCCCCCCN=C(N)NC(N)=NCc1ccc(Cl)c(Cl)c1 [Olanexidine Hydrochloride semihydrate] | 1460 ± 290 |
| CC(=O)OCC[N+](C)(C)C [Acetylcholine iodide] | 27000 ± 2200 |
| C[C@@H](NCCCc1cccc(C(F)(F)F)c1)c1cccc2ccccc12 [Cinacalcet HCl] | 24600 ± 3200 |
| O=C(N[C@H](CO)[C@H](O)c1ccc([N+](=O)[O-])cc1)C(Cl)Cl [Chloramphenicol] | 20900 ± 4200 |
| C#C[C@]1(O)CC[C@H]2[C@@H]3CCC4=CC(=O)CC[C@@H]4[C@H]3C(=C)C[C@@]21CC [Etonogestrel] | 24100 ± 6700 |
| CC[C@H]1OC(=O)C[C@@H](O)[C@H](C)[C@@H](O[C@@H]2O[C@H](C)[C@@H](O)[C@H](N(C)C)[C@H]2O)[C@@H](CCN2C[C@H](C)C[C@H](C)C2)C[C@@H](C)C(=O)/C=C/C(C)=C/[C@@H]1CO[C@@H]1O[C@H](C)[C@@H](O)[C@@H](OC)[C@H]1OC [Tilmicosin] | 23500 ± 3500 |
| CC(=O)N1CCN(c2ccc(OCC3COC(Cn4ccnc4)(c4ccc(Cl)cc4Cl)O3)cc2)CC1 (stereo unspecified) [Ketoconazole] | 33400 ± 5000 |
| N=C(N)NS(=O)(=O)c1ccc(N)cc1 [Sulfaguanidine] | 27800 ± 5600 |
